For experiment [1], the target named is LYK8-VYNE (M. truncatula). The experiment is described as follows: split reporter; split-Venus BiFC: LYK8 fused to VYNE, the other receptors to VYCE, co-expressed in N. benthamiana leaves; confocal microscopy 36 h after infiltration.
In experiment [2] the target is LYK8-FLAG (M. truncatula). Kind of experiment: co-IP; LYK8-FLAG and HA-tagged receptors co-expressed in N. benthamiana leaves; leaves infiltrated with water or 1 μM CO4 or CO8 for 10 min before extraction; anti-FLAG M2 agarose, 4 h at 4 °C; blots with anti-HA and anti-FLAG.

This is an account of results in article PMC11037463.

These are yes or no findings as the source states them, for the method shown. Binding seen in cells or lysates may run through a third protein. Binding calls can cover weak binding; strength is not graded here. For some assays here: Tags and fused reporters may be left off the sequences shown.

B1: DMI2-VYCE (receptor, UniProt Q8L4H4 30-925)
chain: ATKGFESIACCADSNYTDPKTTLTYTTDHIWFSDKRSCRQIPEILFSHRSNKNVRKFEIYEGKRCYNLPTVKDQVYLIRGIFPFDSLNSSFYVSIGVTELGELRSSRLEDLEIEGVFRATKDYIDFCLLKEDVNPFISQIELRPLPEEYLHGFGTSVLKLISRNNLGDTNDDIRFPDDQNDRIWKRKETSTPTSALPLSFNVSNVDLKDSVTPPLQVLQTALTHPERLEFVHDGLETDDYEYSVFLHFLELNGTVRAGQRVFDIYLNNEIKKEKFDVLAGGSKNSYTALNISANGSLNITLVKASGSEFGPLLNAYEILQARSWIEETNQKDLEVIQKMREELLLHNQENEALESWSGDPCMIFPWKGITCDDSTGSSIITKLDLSSNNLKGAIPSIVTKMTNLQILNLSHNQFDMLFPSFPPSSLLISLDLSYNDLSGWLPESIISLPHLKSLYFGCNPSMSDEDTTKLNSSLINTDYGRCKAKKPKFGQVFVIGAITSGSLLITLAVGILFFCRYRHKSITLEGFGKTYPMATNIIFSLPSKDDFFIKSVSVKPFTLEYIEQATEQYKTLIGEGGFGSVYRGTLDDGQEVAVKVRSSTSTQGTREFDNELNLLSAIQHENLVPLLGYCNEYDQQILVYPFMSNGSLLDRLYGEASKRKILDWPTRLSIALGAARGLAYLHTFPGRSVIHRDVKSSNILLDQSMCAKVADFGFSKYAPQEGDSYVSLEVRGTAGYLDPEYYKTQQLSEKSDVFSFGVVLLEIVSGREPLNIKRPRIEWSLVEWAKPYIRASKVDEIVDPGIKGGYHAEALWRVVEVALQCLEPYSTYRPCMVDIVRELEDALIIENNASEYMKSIDSLGGSNRYSIVMDKRALPSTTSTAESTITTQTLSHPQPR
For B1, the binding result in experiment [1] was “binds”.

B2: DMI2-HA (receptor, UniProt Q8L4H4 30-925)
chain: ATKGFESIACCADSNYTDPKTTLTYTTDHIWFSDKRSCRQIPEILFSHRSNKNVRKFEIYEGKRCYNLPTVKDQVYLIRGIFPFDSLNSSFYVSIGVTELGELRSSRLEDLEIEGVFRATKDYIDFCLLKEDVNPFISQIELRPLPEEYLHGFGTSVLKLISRNNLGDTNDDIRFPDDQNDRIWKRKETSTPTSALPLSFNVSNVDLKDSVTPPLQVLQTALTHPERLEFVHDGLETDDYEYSVFLHFLELNGTVRAGQRVFDIYLNNEIKKEKFDVLAGGSKNSYTALNISANGSLNITLVKASGSEFGPLLNAYEILQARSWIEETNQKDLEVIQKMREELLLHNQENEALESWSGDPCMIFPWKGITCDDSTGSSIITKLDLSSNNLKGAIPSIVTKMTNLQILNLSHNQFDMLFPSFPPSSLLISLDLSYNDLSGWLPESIISLPHLKSLYFGCNPSMSDEDTTKLNSSLINTDYGRCKAKKPKFGQVFVIGAITSGSLLITLAVGILFFCRYRHKSITLEGFGKTYPMATNIIFSLPSKDDFFIKSVSVKPFTLEYIEQATEQYKTLIGEGGFGSVYRGTLDDGQEVAVKVRSSTSTQGTREFDNELNLLSAIQHENLVPLLGYCNEYDQQILVYPFMSNGSLLDRLYGEASKRKILDWPTRLSIALGAARGLAYLHTFPGRSVIHRDVKSSNILLDQSMCAKVADFGFSKYAPQEGDSYVSLEVRGTAGYLDPEYYKTQQLSEKSDVFSFGVVLLEIVSGREPLNIKRPRIEWSLVEWAKPYIRASKVDEIVDPGIKGGYHAEALWRVVEVALQCLEPYSTYRPCMVDIVRELEDALIIENNASEYMKSIDSLGGSNRYSIVMDKRALPSTTSTAESTITTQTLSHPQPR
B2: the binding entry in experiment [2] is on record as “binds”.
